Read-outs that look alike come from different tables or passages of the source.

The source of these data is patent US20120202756A1, “USE OF PRODRUGS TO AVOID GI MEDIATED ADVERSE EVENTS” (priority 2009, published 2012).

The nature of one data set: in vivo. To be noted: male rats. The procedure: (§1) Serial tail vein blood samples were subsequently collected via an indwelling cannuala into EDTA tubes containing a stabilising cocktail (including 6 mg/mL NaF) to prevent post collection enzymic hydrolysis of the prodrug.
The conditions of data set [1]: male rats. The procedure:
as §1

As to `CCC[C@@H]1C[C@@H](C(=O)N[C@@H]([C@H]2O[C@H](SC)[C@H](O)[C@@H](O)[C@H]2O)[C@H](C)Cl)N(C)C1` [Clindamycin, clindamycin, reference compound], in the data set “in vivo” (male, Sprague Dawley, rat, in vivo, po, 5 mg clindamycin equivalents/kg, AUCt, plasma clindamycin, oral 5 mg clindamycin equivalents/kg, mean), the AUC(0-t) amounted to 472 ng·h/mL. The Cmax in “in vivo” (male, Sprague Dawley, rat, in vivo, po, 5 mg clindamycin equivalents/kg, plasma clindamycin, oral 5 mg clindamycin equivalents/kg, individual animals) came out at 251 ng/mL; in the data set “in vivo” (male, Sprague Dawley, rat, in vivo, po, 5 mg clindamycin equivalents/kg, plasma clindamycin, oral 5 mg clindamycin equivalents/kg, mean) it was 256 ng/mL. The Tmax in the data set “in vivo” (male, Sprague Dawley, rat, in vivo, po, 5 mg clindamycin equivalents/kg, Tmax, plasma clindamycin, oral 5 mg clindamycin equivalents/kg, mean) amounted to 18 min. Also, the “time of peak plasma levels after dosing” value in the data set “in vivo” (oral) is no more than 15 min.
In the case of `COc1cc2c(cc1OC)C(=O)C(CC1CCN(Cc3ccccc3)CC1)C2` (stereo not shown) [Donepezil, donepezil, reference compound], the “time of peak plasma levels after dosing” value in data set [1] (oral) was no more than 35 min. In addition, the t½ in data set [1] (plasma donepezil, oral 1 mg donepezil equivalents/kg, mean) is 186 min.

In general, AUC(0-t) refers to the area under the concentration-time curve up to a stated or last time point. What is called Cmax is the peak of the concentration-time curve. As a reminder, the Tmax is the time at which the peak concentration occurs. In general, t½ refers to how long it takes for the measured level to halve.
